Our source for the binding values is publication doi:10.1101/2022.04.03.486873 (bioRxiv, 2022).

Sequences of proteins named here, by UniProt entry; tags and fusion partners are left off. Residues count along the entry.
UniProt Q9HAU5, residues 761-1054: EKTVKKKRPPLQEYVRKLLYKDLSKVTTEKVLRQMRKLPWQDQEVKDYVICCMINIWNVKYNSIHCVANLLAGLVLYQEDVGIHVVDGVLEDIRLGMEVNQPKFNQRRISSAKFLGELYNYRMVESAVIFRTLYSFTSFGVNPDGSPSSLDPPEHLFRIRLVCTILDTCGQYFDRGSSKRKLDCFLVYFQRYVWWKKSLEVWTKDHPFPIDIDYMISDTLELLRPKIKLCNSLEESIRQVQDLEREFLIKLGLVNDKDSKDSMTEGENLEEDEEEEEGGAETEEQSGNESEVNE

These are yes or no findings as the source states them, for the method shown.

In this test the target is Avi-UPF2-MIF4GIII (biotinylated) (UniProt Q9HAU5). In words: SPR. For orientation: SPR reads the build-up and loss of mass on a sensor chip optically.

B1: UPF3A-58-173-Iso2 (domain or fragment, UniProt Q9H1J1-2 58-173)
chain: KPREEKRTALSKVVIRRLPPGLTKEQLEEQLRPLPAHDYFEFFAADLSLYPHLYSRAYINFRNPDDILLFRDRFDGYIFLDSKDPEYKKFLETYCVEEEKTSANPETLLGEMEAKT
Take B1: the binding result is given as “no binding”.
